Test results published in PMC8901301.
Results are given in words; binding and its absence hold for the method and conditions named. Binding seen in cells or lysates may run through a third protein. Some entries that bind do so weakly or less than the wild type.

The chains behind the UniProt entries cited, without tags or fusion partners.
UniProt P53667: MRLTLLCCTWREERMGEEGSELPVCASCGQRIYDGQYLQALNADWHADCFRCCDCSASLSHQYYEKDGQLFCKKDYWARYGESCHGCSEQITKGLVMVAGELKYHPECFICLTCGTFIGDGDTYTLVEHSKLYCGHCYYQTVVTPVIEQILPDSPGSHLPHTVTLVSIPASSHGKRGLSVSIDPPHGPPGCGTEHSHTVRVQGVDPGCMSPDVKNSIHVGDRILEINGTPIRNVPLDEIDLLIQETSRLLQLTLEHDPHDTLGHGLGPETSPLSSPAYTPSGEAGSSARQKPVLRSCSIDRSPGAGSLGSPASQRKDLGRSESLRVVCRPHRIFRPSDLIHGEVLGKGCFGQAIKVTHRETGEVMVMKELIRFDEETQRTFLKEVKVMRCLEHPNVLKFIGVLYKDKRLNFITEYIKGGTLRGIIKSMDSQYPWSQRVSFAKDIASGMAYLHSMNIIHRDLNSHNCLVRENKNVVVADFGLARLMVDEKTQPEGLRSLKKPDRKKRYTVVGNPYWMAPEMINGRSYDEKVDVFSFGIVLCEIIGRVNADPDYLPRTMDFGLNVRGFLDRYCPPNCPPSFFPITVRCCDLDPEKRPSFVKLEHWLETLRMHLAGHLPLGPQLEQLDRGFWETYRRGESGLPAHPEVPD
UniProt O00506: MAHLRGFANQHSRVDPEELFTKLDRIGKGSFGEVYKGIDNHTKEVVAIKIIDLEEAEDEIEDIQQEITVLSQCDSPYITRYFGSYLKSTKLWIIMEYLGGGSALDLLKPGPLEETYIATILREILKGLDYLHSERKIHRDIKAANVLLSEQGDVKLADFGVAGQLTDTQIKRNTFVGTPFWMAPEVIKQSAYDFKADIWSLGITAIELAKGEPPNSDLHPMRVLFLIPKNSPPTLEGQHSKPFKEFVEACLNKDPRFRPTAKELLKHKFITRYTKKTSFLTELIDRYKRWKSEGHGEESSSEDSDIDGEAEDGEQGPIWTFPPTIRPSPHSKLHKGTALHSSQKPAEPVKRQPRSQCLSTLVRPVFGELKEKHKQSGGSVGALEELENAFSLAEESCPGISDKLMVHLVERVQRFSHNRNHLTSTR

Molecular target: LIMK1 (UniProt P53667)
Assay: co-IP; no method section for the co-IP; cells, precipitated protein and antibodies not stated

binding: binds
Substance: STK25 (from UniProt O00506 1-426)
